From article PMC5384083

Target: CBP, endogenous [human (endogenous in MCF7 and MDA-MB-453)]
Experiment: co-immunoprecipitation (IP T7, western blot CBP), band intensity given
Details: MDA-MB-453 cells; cell lysates (800 ug)

| response | Substance |
| --- | --- |
| 22.1 | T7 tagged FoxM1 wild type (WT) mutant T596A [not stated] / CBP, endogenous [human (endogenous in MCF7 and MDA-MB-453)] chain 1 T596A |
| 64.9 | T7 tagged FoxM1 wild type (WT) mutant S715D; S724D [not stated] / CBP, endogenous [human (endogenous in MCF7 and MDA-MB-453)] chain 1 S715D, chain 1 S724D |
